Test results reported in patent publication US10864251B2, “Peptides of syndecan-1 for inhibiting angiogenesis” (Wisconsin Alumni Research Foundation, priority 2006, dated 2020).
Entries after “also recorded” stand apart in the source; their conditions may differ. Not every detail of the peptide structures is certain; ends, links or a residue may be inferred. Where no end group is shown, it is not given here.

System: FGF-induced angiogenesis in the mouse cornea
Assay: Corneal pocket implant angiogenesis assay
Type: in vivo
Details: 7 days
Protocol: FIG. 13—Inhibition of corneal angiogenesis by SSTN. PolyHEMA pellets (0.25 μL) containing 67 ng FGF-2 and sucralfate were implanted into the avascular mouse cornea. Alzet pumps containing PBS, 2500 μM mS1ED or a range of SSTN concentrations (0-100 μM) were implanted subcutaneously on the back of the animals and angiogenesis for 7 days. Fluorescent dextran was injected suborbitally for 2 min prior to sacrifice for observation of the vascular system in dissected cornea (picture insets). Total angiogenesis is quantified as total length of vessels growing from the limbic vessels at the margin of the cornea.
A polyhydroxyethylmethacrylate (PolyHEMA) pellet 1 μl in volume containing 100 ng FGF was implanted into pockets surgically prepared in the center of the avascular corneas of 6 wk-old Balb/c mice. Three mice were used as controls and three mice received a 0.2 ml Alzet osmotic pump implanted subcutaneously on the back of the mice. The pump was loaded with 100 μM synstatin82-130 in sterile saline and delivers 1 μl into the mouse per hr. The mice were allowed to recover and were maintained for seven days. The extent of angiogenesis was recorded by digital camera images of the living mouse. Fluorescent dextran was then injected into the vascular via retro-orbital injection 1-2 minutes prior to sacrifice. Corneas were surgically removed, mounted on slides and the extent of vascularization observed via fluorescence microscopy.
To test the efficacy of synstatin82-130 in vivo, the inventors have used the mouse corneal pocket implant angiogenesis assay. Here, angiogenesis is induced in the avascular mouse cornea by implantation of a polyHEMA pellet containing fibroblast growth factor (FGF), which is a potent angiogenic agent. […] The concentration necessary for the block in vivo has not yet been measured. […]
Lastly, SSTN was tested in the in vivo corneal angiogenesis assay. […] To supply the inhibitor in a more quantifiable and physiological manner, recombinant mS1ED or SSTN were delivered systemically via Alzet osmotic pumps implanted subcutaneously on the backs of the animals. […]

SNTETAFTSVLPAGEKPEEGEPVLHVEAEPGFTARDKEKEVTTRPRETV [synstatin82-130]
corneal angiogenesis (30 μM in Alzet pump, 67 ng FGF-2 pellet): nearly total block of angiogenesis | concentration in the pump for 50% inhibition of angiogenesis (Alzet pump): 3 to 10 µM | FGF-induced corneal angiogenesis (systemic via osmotic pump, 100 μM in pump): complete inhibition of angiogenesis; also recorded: devoid of angiogenic vessels
